From PMC7819943, “Rice protein-binding microarrays: a tool to detect cis-acting elements near promoter regions in rice” come the findings set out here.

The chains behind the UniProt entries cited, without tags or fusion partners.
UniProt Q0JBA9, entry or part of it: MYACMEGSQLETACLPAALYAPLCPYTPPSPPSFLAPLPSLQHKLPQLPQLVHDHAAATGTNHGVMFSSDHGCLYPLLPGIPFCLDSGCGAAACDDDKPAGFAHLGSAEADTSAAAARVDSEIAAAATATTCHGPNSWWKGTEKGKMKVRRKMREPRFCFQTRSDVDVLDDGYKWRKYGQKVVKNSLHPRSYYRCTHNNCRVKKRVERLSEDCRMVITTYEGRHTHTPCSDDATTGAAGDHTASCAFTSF

Some of the results follow.

In the experiment the target is OsWRKY34 (Oryza sativa, UniProt Q0JBA9 1-250). The experiment can be described thus: protein-binding microarray (RPBM); PBS, 2% BSA, 51.3 ng/ul salmon testes DNA, 50 uM zinc acetate, 200 nM TF, 25 C, 1 h; high values mean tight binding. The following applies: protein: recombinant; tags: N-terminal polyhistidine and DsRed monomer fusion (pET32a); label: CyDye5-dUTP incorporated in the synthesized complementary strand; 3' TTTTT single-stranded linker to array surface; dsDNA, one strand shown. An outline of the steps: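 Using Ni–NTA, transcription factors fused N-terminally to polyhistidine and DsRed were purified after expression in E. coli BL21-CodonPlus. These were incubated at 200 nM with a blocked, double-stranded custom Agilent array for 1 h at 25 °C in a buffer containing 50 µM zinc acetate, and the array was washed. The binding signal is per-feature fluorescence intensity (arbitrary units) on an Axon 4000B scanner.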
Regarding “CCCTCTGCATGCCTTAATTTTGTGGATCTCTCGCTCGATCCGGAGTCACCTAGTGCAG”, the binding signal was 12300 fluorescence intensity (a.u.). Regarding “TTCCTCGATCTCTCAGGCTACGTTTTGATGGCTTACTGCACGGAGTCACCTAGTGCAG”, the binding signal was 8510 fluorescence intensity (a.u.).

For “AGACGGACGGGGTAGAGTTGGGGTCTCGCGGTGAGCCGATCGGAGTCACCTAGTGCAG”, the binding signal is 10300 fluorescence intensity (a.u.). Next, “GGGAGCTGAAAAGCAAACTCTCGTCTCTCTGTGTATGTTCCGGAGTCACCTAGTGCAG”: 9480 fluorescence intensity (a.u.); “TCATCAGTGCCCTATCAGTCCCGGCAAATCCTTAATTAATCGGAGTCACCTAGTGCAG”: 8360 fluorescence intensity (a.u.); “GCTCTCTCTCTCTCTCTCTTTGCTCGATTCGCCGGCGATGCGGAGTCACCTAGTGCAG”: 8130 fluorescence intensity (a.u.). For the sequence “GCTAGTTTTAAAAATTAACATATCATCTACCGTACTTTAACGGAGTCACCTAGTGCAG”, the binding signal is 8240 fluorescence intensity (a.u.).

With “CGGAATCTATAATTTGTTTTGTTATTAGTCTATGTTTAATCGGAGTCACCTAGTGCAG”, the binding signal is 9330 fluorescence intensity (a.u.). “TCTCCATTTGGGCCACTGTTGCATTTTCCTACTTTGCTACCGGAGTCACCTAGTGCAG”: the binding signal is 10500 fluorescence intensity (a.u.).

Consider “AACAGGGCCATAAGCGTGCACATTTGCATTATATTTTTCCCGGAGTCACCTAGTGCAG”, for which the binding signal is 8660 fluorescence intensity (a.u.). On to “GCTTCGCGATAAATACGATATTTTTTTTTGAGATTTTTTTCGGAGTCACCTAGTGCAG”, for which the binding signal is 8200 fluorescence intensity (a.u.). Next, “TCTACCTACTTTCTTAATACACGTGCGTACCTAAAAAAATCGGAGTCACCTAGTGCAG”: 8280 fluorescence intensity (a.u.). The same measure for “CTAATGTTTTTGCTCTATTTTATTTTGTGTTGTGACCAAACGGAGTCACCTAGTGCAG”: 10600 fluorescence intensity (a.u.); for “TCCCTCGCCGCCGGCCGCCGCCCGCAGATTGGATTGGATTCGGAGTCACCTAGTGCAG”: 11500 fluorescence intensity (a.u.).

As for “AAAATCTCTGAAACCCAACTTCTCTAGCTTCTGGCTTCTTCGGAGTCACCTAGTGCAG”, the binding signal is 8520 fluorescence intensity (a.u.). Take “GGTGGCGTTTCGTTCCGTTGGCGGCGGGCGGAGGTGATTGCGGAGTCACCTAGTGCAG”: the binding signal was 9630 fluorescence intensity (a.u.). Next, “AGAGTGGGAACGTGATGGGTCTTGGGGCTTTTGCCGCCAACGGAGTCACCTAGTGCAG”: 8190 fluorescence intensity (a.u.). For “TTTCGATCCGATCCCTGCTATTTTATCTTTGCTCCTTTTACGGAGTCACCTAGTGCAG”, the binding signal is 13700 fluorescence intensity (a.u.). Next, “CATCATCGGCCACTGTTTATATAACTTTTGTTTTTTTAATCGGAGTCACCTAGTGCAG”: 11900 fluorescence intensity (a.u.); “AACGGTACCATCACCATCATTTATCATGGGCACAACTTGCCGGAGTCACCTAGTGCAG”: 8810 fluorescence intensity (a.u.). For “CTCGACCTCTCTTCCTTATGCTCTTCTGCAAGCTGTCGCACGGAGTCACCTAGTGCAG”, the binding signal was 8520 fluorescence intensity (a.u.). Next, “CCTTCCCAGCCGTCTCGTCTCTCTCTCTCTCTCTCAAAAACGGAGTCACCTAGTGCAG”: 9380 fluorescence intensity (a.u.); “ATCGCCTGCCATGTTTGGTCCTTCTGATCCCAGCTTGGTTCGGAGTCACCTAGTGCAG”: 8090 fluorescence intensity (a.u.); “GCTGTCCCTATATACACAACATTTGACCAAGATGATGACGCGGAGTCACCTAGTGCAG”: 10300 fluorescence intensity (a.u.). Next, “CTACCACTGCCTCAAACCTTTCGTCTCGTCTCGTGTTTGACGGAGTCACCTAGTGCAG”: 9630 fluorescence intensity (a.u.).

Take “TTTTTTAAAATACAATCCTTTTACTGTGGCTGTTTGTAACCGGAGTCACCTAGTGCAG”: the binding signal is 9640 fluorescence intensity (a.u.). “CCACTTTGACCACCGCCGCCCCGCCGGCTTCGCACGCCATCGGAGTCACCTAGTGCAG”: the binding signal was 10000 fluorescence intensity (a.u.).

“AATCATTCCGTTCAGTTATATCTGCTCGTTGCTCGTTGATCGGAGTCACCTAGTGCAG”: the binding signal is 12600 fluorescence intensity (a.u.).

Regarding “GTTTAAAGTTAGACCACATGCTTATTCTTTGTAACTTGCTCGGAGTCACCTAGTGCAG”, the binding signal was 9730 fluorescence intensity (a.u.). For “ACGGTGTGTCTCTAGATTTTCTTCTTTAATTAGTTTGTGTCGGAGTCACCTAGTGCAG”, the binding signal is 8220 fluorescence intensity (a.u.). The same measure for “TCCTTCGTCGCCTTCCGCCGCTACTCGATCAGCAGCTCAGCGGAGTCACCTAGTGCAG”: 8570 fluorescence intensity (a.u.); for “CCCTCGTCTCCGTCCTACTCGTACCTTCTAGATCATCATCCGGAGTCACCTAGTGCAG”: 10600 fluorescence intensity (a.u.). As to “CTCTATCTGCTCGGCCTATCTCTCTTCGCCTCAGCCCATACGGAGTCACCTAGTGCAG”, the binding signal is 9340 fluorescence intensity (a.u.). Turning to “CTGGTGTGAATAAAGCTCTTTGGAAATTTTAGTGGTAATTCGGAGTCACCTAGTGCAG”, the binding signal was 8030 fluorescence intensity (a.u.).

As to “TAGTGTAGGATTTCAATTCATTTGTTTTTCCTCCATTTATCGGAGTCACCTAGTGCAG”, the binding signal was 8280 fluorescence intensity (a.u.). Next, “CGACCCGGCCTCTCGCTCTCGTTGCCTTTCTTTCGCGCTCCGGAGTCACCTAGTGCAG”: 10600 fluorescence intensity (a.u.); “ACATGCGTACTGTACATGTAACTACGACTTGTTGTCTGTCCGGAGTCACCTAGTGCAG”: 10100 fluorescence intensity (a.u.). Next, “TCCTGCGCGCGCTCATCAGTATTCAGTATCCGTCACTCCGCGGAGTCACCTAGTGCAG”: 8420 fluorescence intensity (a.u.). Next, “ACCGGGCATTCTCATCGGATCCATACAGCCCTAGCTAGCACGGAGTCACCTAGTGCAG”: 9960 fluorescence intensity (a.u.). As to “AAGCGTACTCCTTCCCTGCAGCTGCTTCCATCAATACAATCGGAGTCACCTAGTGCAG”, the binding signal is 10100 fluorescence intensity (a.u.).

Turning to “GTCGATTCGCGTCACGTCAGTAGGTGGACTTAATTTGTTGCGGAGTCACCTAGTGCAG”, the binding signal was 8100 fluorescence intensity (a.u.).

Take “CTCGACGCCTCCACGGAATCGTCGCTGCATCTCCATTCCTCGGAGTCACCTAGTGCAG”: the binding signal is 8120 fluorescence intensity (a.u.).
